Measured values published in article PMC2432030.
No constants are given. Whether binding was seen depends on the method and setting. Binding seen in cells or lysates may run through a third protein. Binding can be weak; no strength is given.

The chains behind the UniProt entries cited, without tags or fusion partners. Where a name states a change or a piece, a line headed by the entry shows the natural chain unless it says otherwise.
UniProt Q80X90: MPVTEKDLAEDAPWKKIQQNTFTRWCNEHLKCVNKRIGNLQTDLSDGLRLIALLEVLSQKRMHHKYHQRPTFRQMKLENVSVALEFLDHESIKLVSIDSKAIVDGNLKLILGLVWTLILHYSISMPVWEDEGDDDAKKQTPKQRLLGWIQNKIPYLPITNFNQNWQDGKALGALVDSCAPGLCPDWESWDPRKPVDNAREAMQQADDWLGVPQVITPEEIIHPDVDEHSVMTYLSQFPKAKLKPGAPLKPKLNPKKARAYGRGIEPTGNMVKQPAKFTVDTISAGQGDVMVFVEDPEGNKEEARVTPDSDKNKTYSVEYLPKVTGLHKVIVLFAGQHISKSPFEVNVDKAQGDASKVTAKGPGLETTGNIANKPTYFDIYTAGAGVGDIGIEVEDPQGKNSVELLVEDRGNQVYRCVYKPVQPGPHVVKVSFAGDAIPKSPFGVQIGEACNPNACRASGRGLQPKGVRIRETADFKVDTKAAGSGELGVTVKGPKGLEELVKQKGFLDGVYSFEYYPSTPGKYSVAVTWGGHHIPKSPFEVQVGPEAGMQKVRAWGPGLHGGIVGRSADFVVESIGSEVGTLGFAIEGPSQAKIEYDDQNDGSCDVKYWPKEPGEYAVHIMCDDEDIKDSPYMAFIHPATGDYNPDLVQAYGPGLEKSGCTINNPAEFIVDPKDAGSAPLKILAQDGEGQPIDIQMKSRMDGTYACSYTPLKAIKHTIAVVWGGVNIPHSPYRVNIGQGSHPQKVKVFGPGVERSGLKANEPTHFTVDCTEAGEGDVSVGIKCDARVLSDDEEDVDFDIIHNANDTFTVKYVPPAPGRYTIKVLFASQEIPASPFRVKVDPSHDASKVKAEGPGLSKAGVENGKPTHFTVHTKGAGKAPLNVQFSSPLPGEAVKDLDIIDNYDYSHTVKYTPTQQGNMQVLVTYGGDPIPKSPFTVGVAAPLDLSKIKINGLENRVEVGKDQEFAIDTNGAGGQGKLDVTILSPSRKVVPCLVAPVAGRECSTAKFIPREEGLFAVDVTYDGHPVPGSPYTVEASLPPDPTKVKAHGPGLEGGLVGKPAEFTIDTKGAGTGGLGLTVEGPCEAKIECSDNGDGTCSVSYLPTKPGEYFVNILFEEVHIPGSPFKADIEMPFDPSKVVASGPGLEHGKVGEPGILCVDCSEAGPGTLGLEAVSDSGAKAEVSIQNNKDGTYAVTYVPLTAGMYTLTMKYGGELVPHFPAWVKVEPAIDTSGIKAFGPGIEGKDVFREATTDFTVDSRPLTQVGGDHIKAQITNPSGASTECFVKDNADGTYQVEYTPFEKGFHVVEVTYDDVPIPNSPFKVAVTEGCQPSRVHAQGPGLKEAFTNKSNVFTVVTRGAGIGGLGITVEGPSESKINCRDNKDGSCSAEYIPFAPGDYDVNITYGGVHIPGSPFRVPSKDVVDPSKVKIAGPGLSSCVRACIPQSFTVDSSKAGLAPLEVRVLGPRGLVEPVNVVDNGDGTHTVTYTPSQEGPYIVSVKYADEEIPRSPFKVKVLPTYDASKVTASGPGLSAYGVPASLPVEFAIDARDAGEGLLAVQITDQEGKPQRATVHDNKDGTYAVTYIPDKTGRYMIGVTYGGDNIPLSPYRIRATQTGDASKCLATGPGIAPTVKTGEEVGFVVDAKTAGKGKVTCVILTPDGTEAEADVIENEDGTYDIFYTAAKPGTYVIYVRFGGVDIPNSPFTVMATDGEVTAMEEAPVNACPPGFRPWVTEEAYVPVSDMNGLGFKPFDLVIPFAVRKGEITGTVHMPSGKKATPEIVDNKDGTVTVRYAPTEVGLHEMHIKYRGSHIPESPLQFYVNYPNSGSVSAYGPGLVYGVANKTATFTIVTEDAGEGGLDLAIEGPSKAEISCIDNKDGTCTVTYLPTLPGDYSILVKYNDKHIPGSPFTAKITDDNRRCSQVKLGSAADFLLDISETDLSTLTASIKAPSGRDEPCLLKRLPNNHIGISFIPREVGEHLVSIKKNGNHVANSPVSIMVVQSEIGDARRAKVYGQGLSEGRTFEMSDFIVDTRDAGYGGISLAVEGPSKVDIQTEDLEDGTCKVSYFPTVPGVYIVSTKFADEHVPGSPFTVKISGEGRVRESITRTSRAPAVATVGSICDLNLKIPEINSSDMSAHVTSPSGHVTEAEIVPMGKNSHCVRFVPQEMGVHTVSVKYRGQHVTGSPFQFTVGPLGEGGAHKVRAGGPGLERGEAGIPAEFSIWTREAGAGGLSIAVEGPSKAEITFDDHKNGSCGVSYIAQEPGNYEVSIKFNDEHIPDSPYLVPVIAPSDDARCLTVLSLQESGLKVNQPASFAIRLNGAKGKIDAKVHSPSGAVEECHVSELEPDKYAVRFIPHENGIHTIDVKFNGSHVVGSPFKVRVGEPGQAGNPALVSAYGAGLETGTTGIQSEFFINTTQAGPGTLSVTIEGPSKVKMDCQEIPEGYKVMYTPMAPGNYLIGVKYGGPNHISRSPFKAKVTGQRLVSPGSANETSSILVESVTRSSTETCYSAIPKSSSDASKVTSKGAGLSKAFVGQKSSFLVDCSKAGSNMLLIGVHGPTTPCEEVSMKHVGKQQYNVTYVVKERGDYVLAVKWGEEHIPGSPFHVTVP
UniProt Q9JIS7: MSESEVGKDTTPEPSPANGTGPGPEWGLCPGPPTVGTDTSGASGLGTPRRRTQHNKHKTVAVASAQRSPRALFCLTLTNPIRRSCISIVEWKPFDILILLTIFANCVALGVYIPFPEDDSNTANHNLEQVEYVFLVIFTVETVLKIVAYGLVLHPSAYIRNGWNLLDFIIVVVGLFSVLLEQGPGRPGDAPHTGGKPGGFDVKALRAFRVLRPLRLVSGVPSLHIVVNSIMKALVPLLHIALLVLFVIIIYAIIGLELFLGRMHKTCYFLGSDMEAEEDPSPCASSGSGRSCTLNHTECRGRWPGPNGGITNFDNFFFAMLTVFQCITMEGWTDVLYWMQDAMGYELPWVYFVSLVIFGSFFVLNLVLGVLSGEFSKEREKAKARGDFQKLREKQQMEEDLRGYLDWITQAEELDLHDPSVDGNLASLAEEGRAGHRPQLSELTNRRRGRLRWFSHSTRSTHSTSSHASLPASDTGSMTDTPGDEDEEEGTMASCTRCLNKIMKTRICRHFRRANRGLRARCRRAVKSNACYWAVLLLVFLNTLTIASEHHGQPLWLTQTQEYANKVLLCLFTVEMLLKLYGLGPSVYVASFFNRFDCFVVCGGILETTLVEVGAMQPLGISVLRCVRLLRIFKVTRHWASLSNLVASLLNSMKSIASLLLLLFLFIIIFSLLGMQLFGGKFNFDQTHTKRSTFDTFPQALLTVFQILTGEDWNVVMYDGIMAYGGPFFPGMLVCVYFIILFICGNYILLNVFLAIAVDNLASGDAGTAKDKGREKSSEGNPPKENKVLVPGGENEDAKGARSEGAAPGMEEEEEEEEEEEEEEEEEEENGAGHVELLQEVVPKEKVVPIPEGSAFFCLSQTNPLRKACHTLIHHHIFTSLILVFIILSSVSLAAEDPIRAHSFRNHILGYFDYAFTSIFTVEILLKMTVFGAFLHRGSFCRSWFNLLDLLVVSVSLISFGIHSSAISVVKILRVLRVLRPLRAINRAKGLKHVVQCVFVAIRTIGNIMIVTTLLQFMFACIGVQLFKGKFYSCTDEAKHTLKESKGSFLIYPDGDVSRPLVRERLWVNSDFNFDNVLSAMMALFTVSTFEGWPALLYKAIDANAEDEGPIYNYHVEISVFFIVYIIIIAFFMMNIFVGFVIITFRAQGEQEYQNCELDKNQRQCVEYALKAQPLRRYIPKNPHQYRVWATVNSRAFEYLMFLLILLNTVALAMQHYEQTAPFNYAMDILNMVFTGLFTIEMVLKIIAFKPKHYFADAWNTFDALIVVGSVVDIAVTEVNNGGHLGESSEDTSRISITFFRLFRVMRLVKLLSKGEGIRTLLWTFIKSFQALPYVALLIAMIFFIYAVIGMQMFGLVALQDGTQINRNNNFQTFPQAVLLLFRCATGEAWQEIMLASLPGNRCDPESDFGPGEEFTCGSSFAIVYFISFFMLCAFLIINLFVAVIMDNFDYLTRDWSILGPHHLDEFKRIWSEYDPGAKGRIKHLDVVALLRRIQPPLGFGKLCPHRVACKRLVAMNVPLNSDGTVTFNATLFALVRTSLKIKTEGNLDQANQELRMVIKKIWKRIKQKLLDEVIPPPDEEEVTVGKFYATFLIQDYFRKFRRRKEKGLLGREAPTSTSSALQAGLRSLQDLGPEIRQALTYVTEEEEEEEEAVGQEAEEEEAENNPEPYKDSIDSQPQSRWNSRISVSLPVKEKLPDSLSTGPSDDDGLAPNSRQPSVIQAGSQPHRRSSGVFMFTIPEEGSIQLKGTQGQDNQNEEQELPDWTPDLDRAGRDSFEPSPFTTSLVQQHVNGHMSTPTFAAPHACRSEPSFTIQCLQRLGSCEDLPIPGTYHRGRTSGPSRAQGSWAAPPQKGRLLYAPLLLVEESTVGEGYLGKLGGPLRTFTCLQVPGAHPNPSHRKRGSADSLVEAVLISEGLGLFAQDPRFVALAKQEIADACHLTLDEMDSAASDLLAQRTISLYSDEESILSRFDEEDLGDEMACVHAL

How the values were obtained:
[1] = biological target: HA-tagged C-terminus of filamin A (mouse) (UniProt Q8BTM8); test: pull-down; HA-tagged filamin C-termini from tsA-201 lysate (300 mM NaCl, 50 mM Tris pH 7.5, 0.1% Triton X-100) held on sepharose G beads with anti-HA antibody, washed, incubated with 1 ml of GST-Cav1.4^wt or GST-Cav1.4^nob2 cell lysate overnight at 4 °C, washed; blot probed with anti-GST antibody; n = 3; only the target purified
[2] = biological target: HA-tagged C-terminus of filamin B (mouse) (UniProt Q80X90); test: as above

binding [1]: binds
binding [2]: binds
Substance: GST-Cav1.4^wt N-terminus (from UniProt Q9JIS7) (domain or fragment)
